Experimental data as given in article PMC8936114.
Results are given in words; binding and its absence hold for the method and conditions named. Binding seen in cells or lysates may run through a third protein. Some binding calls cover weakened binding; strength is not graded here.

The chains behind the UniProt entries cited, without tags or fusion partners.
UniProt P37198: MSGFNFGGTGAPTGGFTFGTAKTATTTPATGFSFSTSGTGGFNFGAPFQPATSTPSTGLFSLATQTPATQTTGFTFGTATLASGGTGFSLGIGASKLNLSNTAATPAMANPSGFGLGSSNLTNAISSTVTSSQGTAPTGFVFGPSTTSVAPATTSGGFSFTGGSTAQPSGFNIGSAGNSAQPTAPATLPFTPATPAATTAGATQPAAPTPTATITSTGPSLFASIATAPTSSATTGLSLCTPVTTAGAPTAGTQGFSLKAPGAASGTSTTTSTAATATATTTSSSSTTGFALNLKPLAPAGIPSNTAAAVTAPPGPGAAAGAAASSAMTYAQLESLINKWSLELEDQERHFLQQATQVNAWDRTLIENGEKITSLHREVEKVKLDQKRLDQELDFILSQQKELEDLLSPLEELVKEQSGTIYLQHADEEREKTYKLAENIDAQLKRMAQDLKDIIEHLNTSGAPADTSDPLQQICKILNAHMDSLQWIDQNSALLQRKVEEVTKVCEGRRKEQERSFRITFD

Biological target: SARS-CoV-2 NSP9, 2xStrep-tagged (SARS-CoV-2) (UniProt P0DTD1)
Assay: co-IP

Substance: NUP62 (from UniProt P37198 1-522)
- binding: binds
